Where a chain is given by its changes, count along the chain named. No constants are given. Whether binding was seen depends on the method and setting. Some results given as binding are weak or reduced against the parent protein; the word gives no strength.
B1: anti-BCMA antibody PI-61 (antibody, V domains shown)
VH: QVQLQESGGGVVQPGRSLRLSCAASGFTFSSYGMHWVRQAPGKGLEWVAVISYDGSNKYYADSVKGRFTISRDNSKNTLYLQMNSLRAEDTAVYYCGGSGYALHDDYYGLDVWGQGTLVTVSS
VL: QSALTQPASVSGSPGQSITISCTGTSSDVGGYNYVSWYQQHPGKAPKLMIYDVSNRPSGVSNRFSGSKSGNTASLTISGLQAEDEADYYCSSYTSSSTLYVFGSGTKVTVL
B2: anti-BCMA antibody H3-12 (antibody, V domains shown)
VH: B1 VH with V2A, E6S, G8E, G55E, A102E, L103V, H104D, D105Q
VL: B1 VL with D52E, P57L, S58R, S69F
B3: anti-BCMA antibody H3-13 (antibody, V domains shown)
VH: B1 VH with G55D, S56A, N57H, D106Q, Y108K, G109P, L110V
VL: B1 VL with D52E, P57L, S58R, S69F
B4: anti-BCMA antibody H3-14 (antibody, V domains shown)
VH: B1 VH with E6G, G55D, S56A, N57H, D106Q, Y108K, G109P, L110V
VL: B1 VL with D52E, P57L, S69F, T98A
B5: anti-BCMA antibody H3-15 (antibody, V domains shown)
VH: B1 VH with E6G, F29V, G55D, S56A, N74S, L103Y, H104D, D105G
VL: B1 VL with D52E, P57L, S58G, S69F, T98A

Protein sequences, listed by entry. Tags and fused reporters are not part of them. Residues count along the entry.
UniProt Q02223, residues 1-54: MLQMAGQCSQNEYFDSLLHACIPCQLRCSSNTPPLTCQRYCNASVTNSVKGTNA

What was measured:
[1] = biological target: BCMA (species not stated) (UniProt Q02223); experiment: phage display; assay not described
[2] = biological target: BCMA (species not stated) (UniProt Q02223); experiment: affinity maturation of PI-61; assay not described

Row | Binder | binding [1] | binding [2]
1 | B1 | binds | 
2 | B2 |  | binds
3 | B3 |  | binds
4 | B4 |  | binds
5 | B5 |  | binds

Reference: US20230128499A1
